{"source": "patent US20100016238", "about": "(published 2010)", "assay": "general procedure: Fmoc solid-phase peptide synthesis; Fmoc-Rink amide AM resin (0.71 mmol/g, Novabiochem); HOBt/DIC; HOAt/DIC for some couplings", "settings": "whole synthesis, UV 214 nm, scale 0.25 mmol"}
{"substance": "{2-[2-(16-(tetrazol-5-yl)hexadecanoylamino)ethoxy]ethoxy}acetyl-Gln-Arg-Ser-His-Ser-Nle-c[Glu-Hyp-D-Phe-Arg-Trp-Lys]-NH2", "values": [{"measurement": "final HPLC purity", "result": 100, "unit": "% purity"}]}
